Measurements reported in PubChem BioAssay AID686943 (Drosophila RNAi Screening Center, 2013)
In all, the deposit lists about 23,000 reagents; shown is an unselected part of those that have a named target and a result. 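Extra replicates exist only for a retested subset of genes; insulin dose and duration not given; both raised and lowered dpERK matter.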 Reagents against one gene are numbered here. Further read-outs or replicates are left out here. Not stated in the record: the amount of reagent, the time to read-out.

- Purpose: 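Knockdowns that increase or decrease active ERK after insulin receptor stimulation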 (primary screen)
- System: Drosophila S2R+ haemocyte-like cells expressing YFP-tagged ERK (Rolled)
- Knock-down reagent: long dsRNA against Drosophila genes
- Treatment: insulin stimulation versus unstimulated cells; dose and duration not given
- Detection: 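Antibody staining for doubly phosphorylated ERK divided by ERK-YFP signal, as plate z-scores, in insulin-treated and untreated cells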
- Direction: replicate 1, z-score of dpERK with insulin: higher = more active ERK per ERK-YFP after insulin

Against Cpr67Fa1, the values are replicate 1, z-score of dpERK with insulin -0.35.
For CG31730, the values are replicate 1, z-score of dpERK with insulin -0.15.
Against CG15894 #1, the entry reads replicate 1, z-score of dpERK with insulin 0.68.
CG15894 #2 gave replicate 1, z-score of dpERK with insulin -3.36.
Silencing of MICU3 #1 gave: replicate 1, z-score of dpERK with insulin -0.63.
MICU3 #2 gave replicate 1, z-score of dpERK with insulin -0.21.
With knock-down of toy, the record shows replicate 1, z-score of dpERK with insulin -2.18.
After knock-down of CG3618, the record shows replicate 1, z-score of dpERK with insulin -0.17.
Krn gave replicate 1, z-score of dpERK with insulin -1.57.
After knock-down of RpS12, the screen gave replicate 1, z-score of dpERK with insulin -3.99.
Against CG33290, the values are replicate 1, z-score of dpERK with insulin -0.22.
ringer gave replicate 1, z-score of dpERK with insulin 0.26.
Depletion of PGRP-SB1 resulted in: replicate 1, z-score of dpERK with insulin -0.36.
Against Edem2, the values are replicate 1, z-score of dpERK with insulin 0.19.
With knock-down of Dscam4 #1, the screen gave replicate 1, z-score of dpERK with insulin -1.16.
After knock-down of Dscam4 #2, the screen gave replicate 1, z-score of dpERK with insulin 0.94.
Silencing of Dscam4 #3 came out at: replicate 1, z-score of dpERK with insulin -0.91.
Silencing of Dscam4 #4 resulted in: replicate 1, z-score of dpERK with insulin -1.24.
Against Dscam4 #5, the entry reads replicate 1, z-score of dpERK with insulin 0.75.
With knock-down of CG2930, the record shows replicate 1, z-score of dpERK with insulin -0.85.
After knock-down of CG30046 the results were replicate 1, z-score of dpERK with insulin 0.53.
Depletion of elfless came out at: replicate 1, z-score of dpERK with insulin 0.16.
GstE14 gave replicate 1, z-score of dpERK with insulin -0.34.
After knock-down of caz #1, the record shows replicate 1, z-score of dpERK with insulin 0.83.
caz #2 showed replicate 1, z-score of dpERK with insulin 0.79.
Against MetRS-m #1, the values are replicate 1, z-score of dpERK with insulin -0.78.
Silencing of MetRS-m #2 came out at: replicate 1, z-score of dpERK with insulin 0.19.
Silencing of hang #1 resulted in: replicate 1, z-score of dpERK with insulin -0.49.
After knock-down of hang #2 the results were replicate 1, z-score of dpERK with insulin -0.47.
After knock-down of Eogt the results were replicate 1, z-score of dpERK with insulin -0.26.
Against Prim1 the deposit lists replicate 1, z-score of dpERK with insulin -0.31.

Part of the list above, set out differently:
| Target gene | reagent no. | replicate 1, z-score of dpERK with insulin |
| --- | --- | --- |
| toy | 1 | -2.18 |
| CG3618 | 1 | -0.17 |
| Krn | 1 | -1.57 |
| RpS12 | 1 | -3.99 |
